Measurements: the supplement of paper PMC10849652
Some of the results follow.

Protein sequences, listed by entry. Tags and fused reporters are not part of them. Lines headed by an entry give the natural chain unless they say otherwise; changes in a name come on top.
UniProt Q969M3: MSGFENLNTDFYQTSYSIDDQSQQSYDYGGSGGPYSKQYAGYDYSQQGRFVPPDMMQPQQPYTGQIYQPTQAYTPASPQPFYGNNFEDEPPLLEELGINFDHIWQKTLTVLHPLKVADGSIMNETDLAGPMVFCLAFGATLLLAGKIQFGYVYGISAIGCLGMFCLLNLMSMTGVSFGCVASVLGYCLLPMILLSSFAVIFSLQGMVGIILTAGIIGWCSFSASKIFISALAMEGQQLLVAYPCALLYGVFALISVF
UniProt P49750: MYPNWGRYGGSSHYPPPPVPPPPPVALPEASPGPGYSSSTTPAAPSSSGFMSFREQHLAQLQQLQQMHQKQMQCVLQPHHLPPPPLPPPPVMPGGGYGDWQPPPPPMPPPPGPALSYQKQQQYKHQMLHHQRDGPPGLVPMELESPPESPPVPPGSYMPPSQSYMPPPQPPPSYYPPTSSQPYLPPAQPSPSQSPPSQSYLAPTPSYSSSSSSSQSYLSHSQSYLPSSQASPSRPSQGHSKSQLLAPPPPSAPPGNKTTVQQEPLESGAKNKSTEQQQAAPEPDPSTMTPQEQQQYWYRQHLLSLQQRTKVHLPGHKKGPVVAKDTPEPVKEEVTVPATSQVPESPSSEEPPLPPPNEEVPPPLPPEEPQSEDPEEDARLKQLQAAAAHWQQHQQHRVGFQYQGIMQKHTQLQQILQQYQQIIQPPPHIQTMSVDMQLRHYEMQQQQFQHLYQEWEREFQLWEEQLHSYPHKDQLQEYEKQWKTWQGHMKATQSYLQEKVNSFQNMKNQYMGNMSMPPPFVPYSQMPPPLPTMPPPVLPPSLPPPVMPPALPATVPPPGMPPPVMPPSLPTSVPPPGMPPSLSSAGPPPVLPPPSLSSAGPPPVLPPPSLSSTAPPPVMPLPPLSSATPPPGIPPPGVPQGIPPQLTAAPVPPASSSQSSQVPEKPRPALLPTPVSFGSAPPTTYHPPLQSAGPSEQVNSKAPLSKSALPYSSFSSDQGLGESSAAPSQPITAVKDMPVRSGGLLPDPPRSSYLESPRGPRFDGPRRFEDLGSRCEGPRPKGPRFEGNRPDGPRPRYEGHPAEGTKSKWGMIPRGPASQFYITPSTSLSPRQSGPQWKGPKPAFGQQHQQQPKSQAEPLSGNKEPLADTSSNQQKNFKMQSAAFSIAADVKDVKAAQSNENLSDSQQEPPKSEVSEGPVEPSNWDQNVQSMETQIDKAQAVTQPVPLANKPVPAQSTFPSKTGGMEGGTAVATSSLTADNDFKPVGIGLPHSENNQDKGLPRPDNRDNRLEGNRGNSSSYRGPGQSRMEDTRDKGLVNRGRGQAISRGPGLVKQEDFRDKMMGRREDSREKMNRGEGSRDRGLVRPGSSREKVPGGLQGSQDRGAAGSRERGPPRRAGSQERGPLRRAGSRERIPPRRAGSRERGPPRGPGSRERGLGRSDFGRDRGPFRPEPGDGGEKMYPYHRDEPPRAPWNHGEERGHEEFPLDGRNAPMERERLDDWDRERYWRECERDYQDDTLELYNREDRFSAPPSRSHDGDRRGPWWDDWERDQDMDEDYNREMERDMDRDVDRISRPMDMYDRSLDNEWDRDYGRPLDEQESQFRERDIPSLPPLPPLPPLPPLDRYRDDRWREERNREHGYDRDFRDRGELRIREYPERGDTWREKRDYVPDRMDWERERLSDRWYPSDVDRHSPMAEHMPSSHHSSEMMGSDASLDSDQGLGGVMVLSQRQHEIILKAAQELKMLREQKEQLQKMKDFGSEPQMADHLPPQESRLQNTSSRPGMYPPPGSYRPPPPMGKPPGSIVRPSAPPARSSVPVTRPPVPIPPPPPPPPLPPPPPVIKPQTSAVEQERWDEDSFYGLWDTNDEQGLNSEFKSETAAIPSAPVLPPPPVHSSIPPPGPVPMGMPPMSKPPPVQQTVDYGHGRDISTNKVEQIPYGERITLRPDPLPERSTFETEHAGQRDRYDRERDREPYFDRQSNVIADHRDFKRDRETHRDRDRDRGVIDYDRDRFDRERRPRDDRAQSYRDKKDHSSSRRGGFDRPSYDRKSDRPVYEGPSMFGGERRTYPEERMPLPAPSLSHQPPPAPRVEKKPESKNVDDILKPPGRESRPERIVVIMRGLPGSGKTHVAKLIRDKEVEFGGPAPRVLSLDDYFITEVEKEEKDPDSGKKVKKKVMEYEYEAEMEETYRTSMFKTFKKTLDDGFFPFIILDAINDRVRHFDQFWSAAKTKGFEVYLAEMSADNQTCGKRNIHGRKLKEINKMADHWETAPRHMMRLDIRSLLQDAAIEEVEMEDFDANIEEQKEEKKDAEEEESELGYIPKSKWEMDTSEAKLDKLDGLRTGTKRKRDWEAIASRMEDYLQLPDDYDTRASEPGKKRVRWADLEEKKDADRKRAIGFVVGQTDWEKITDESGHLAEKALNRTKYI
UniProt P54577: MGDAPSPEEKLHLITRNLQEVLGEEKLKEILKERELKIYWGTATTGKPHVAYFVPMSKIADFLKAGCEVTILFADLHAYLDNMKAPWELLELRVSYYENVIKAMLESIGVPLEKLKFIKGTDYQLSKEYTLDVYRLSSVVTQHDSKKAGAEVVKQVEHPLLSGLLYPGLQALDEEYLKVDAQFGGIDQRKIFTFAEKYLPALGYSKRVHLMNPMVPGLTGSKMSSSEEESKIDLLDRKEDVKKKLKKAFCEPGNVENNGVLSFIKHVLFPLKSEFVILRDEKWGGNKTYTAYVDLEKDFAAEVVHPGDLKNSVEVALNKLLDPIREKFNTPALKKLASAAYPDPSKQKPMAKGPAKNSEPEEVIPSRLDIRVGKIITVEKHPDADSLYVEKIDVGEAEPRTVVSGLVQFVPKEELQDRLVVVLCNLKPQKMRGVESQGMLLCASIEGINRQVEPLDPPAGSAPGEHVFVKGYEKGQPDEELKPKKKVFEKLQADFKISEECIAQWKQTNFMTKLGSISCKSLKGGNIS
UniProt Q9UBH6: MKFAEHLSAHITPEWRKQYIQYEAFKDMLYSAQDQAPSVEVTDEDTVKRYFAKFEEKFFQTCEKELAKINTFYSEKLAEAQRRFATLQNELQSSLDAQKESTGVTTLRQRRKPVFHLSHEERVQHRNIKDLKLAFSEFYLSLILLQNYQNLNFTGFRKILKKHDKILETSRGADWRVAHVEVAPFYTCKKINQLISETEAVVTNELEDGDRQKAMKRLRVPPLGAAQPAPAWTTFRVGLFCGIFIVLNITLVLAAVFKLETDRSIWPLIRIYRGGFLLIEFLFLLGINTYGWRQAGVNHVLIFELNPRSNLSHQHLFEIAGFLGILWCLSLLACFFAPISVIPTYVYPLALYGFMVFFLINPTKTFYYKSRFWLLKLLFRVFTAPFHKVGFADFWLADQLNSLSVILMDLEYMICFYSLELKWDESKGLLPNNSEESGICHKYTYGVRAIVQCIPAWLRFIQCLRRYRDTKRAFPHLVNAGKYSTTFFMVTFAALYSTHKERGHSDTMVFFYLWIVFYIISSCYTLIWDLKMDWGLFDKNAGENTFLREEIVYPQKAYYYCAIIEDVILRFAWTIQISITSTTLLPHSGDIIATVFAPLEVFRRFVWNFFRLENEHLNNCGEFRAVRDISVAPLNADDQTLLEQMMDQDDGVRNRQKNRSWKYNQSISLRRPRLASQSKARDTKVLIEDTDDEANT
UniProt O95070: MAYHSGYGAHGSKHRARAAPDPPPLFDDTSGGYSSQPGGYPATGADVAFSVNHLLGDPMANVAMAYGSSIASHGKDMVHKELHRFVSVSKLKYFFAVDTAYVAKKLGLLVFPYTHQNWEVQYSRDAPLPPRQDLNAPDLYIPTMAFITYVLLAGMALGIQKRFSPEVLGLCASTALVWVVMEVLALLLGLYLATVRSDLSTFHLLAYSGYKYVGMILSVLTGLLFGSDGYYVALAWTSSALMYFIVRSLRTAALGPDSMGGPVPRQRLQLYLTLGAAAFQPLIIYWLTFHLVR
UniProt O95405: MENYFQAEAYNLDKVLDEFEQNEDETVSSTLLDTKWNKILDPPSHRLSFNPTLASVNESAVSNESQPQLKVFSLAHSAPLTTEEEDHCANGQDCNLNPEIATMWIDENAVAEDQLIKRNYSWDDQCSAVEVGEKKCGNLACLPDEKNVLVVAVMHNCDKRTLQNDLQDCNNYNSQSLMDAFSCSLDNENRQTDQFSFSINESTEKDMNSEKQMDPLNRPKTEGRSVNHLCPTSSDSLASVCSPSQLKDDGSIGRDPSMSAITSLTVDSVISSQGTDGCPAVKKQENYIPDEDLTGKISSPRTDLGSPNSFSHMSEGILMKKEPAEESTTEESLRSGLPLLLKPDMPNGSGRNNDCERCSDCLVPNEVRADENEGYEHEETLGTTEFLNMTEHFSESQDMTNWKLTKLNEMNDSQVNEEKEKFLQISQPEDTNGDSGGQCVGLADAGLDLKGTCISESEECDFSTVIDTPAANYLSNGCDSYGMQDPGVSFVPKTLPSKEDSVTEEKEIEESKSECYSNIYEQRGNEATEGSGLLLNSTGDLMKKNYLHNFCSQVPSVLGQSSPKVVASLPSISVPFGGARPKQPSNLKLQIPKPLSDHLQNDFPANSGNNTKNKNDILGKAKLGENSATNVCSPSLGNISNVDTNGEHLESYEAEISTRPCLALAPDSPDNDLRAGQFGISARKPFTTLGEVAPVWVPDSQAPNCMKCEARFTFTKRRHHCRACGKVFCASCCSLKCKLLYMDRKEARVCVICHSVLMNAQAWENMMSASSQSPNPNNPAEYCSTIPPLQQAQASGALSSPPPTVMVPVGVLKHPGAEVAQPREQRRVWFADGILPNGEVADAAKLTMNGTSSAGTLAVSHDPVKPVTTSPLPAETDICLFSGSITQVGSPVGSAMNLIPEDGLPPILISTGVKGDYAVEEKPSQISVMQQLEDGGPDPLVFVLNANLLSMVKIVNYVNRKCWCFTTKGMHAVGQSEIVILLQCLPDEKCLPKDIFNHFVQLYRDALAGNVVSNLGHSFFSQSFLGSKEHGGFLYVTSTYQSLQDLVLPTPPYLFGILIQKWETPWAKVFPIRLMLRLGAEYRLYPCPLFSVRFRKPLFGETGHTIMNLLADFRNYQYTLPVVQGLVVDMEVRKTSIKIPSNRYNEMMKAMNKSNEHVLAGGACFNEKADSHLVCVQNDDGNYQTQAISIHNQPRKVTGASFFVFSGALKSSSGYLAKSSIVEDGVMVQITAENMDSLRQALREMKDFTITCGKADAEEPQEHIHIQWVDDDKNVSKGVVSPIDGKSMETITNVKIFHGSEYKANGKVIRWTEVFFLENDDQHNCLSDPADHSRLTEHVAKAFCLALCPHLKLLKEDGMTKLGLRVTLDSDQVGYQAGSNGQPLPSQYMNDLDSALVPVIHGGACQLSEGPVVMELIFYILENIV
UniProt P25490, whole entry, looked up: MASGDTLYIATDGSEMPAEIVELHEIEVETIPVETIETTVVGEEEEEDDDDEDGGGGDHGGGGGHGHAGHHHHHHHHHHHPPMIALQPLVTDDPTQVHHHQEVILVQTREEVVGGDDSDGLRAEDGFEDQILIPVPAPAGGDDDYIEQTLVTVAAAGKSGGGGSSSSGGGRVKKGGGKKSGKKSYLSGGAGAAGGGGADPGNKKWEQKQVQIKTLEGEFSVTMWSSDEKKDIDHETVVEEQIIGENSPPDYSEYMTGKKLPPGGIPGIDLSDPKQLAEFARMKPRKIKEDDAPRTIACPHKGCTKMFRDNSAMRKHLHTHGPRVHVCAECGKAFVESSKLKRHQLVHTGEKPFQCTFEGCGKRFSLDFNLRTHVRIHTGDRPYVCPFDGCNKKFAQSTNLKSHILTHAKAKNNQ
UniProt Q9Y2Z4: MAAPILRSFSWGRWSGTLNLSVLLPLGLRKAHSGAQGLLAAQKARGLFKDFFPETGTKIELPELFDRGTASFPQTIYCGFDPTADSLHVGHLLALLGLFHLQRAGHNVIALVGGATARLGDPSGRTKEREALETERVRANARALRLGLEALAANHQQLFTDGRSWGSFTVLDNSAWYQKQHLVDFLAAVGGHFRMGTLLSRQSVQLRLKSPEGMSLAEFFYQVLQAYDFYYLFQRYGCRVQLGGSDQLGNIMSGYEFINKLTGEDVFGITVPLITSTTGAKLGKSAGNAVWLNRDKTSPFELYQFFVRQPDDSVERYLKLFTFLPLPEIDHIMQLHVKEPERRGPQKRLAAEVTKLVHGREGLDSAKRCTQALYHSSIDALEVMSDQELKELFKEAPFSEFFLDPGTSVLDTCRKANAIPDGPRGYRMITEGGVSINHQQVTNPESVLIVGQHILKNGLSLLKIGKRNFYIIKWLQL
UniProt Q8N5P1: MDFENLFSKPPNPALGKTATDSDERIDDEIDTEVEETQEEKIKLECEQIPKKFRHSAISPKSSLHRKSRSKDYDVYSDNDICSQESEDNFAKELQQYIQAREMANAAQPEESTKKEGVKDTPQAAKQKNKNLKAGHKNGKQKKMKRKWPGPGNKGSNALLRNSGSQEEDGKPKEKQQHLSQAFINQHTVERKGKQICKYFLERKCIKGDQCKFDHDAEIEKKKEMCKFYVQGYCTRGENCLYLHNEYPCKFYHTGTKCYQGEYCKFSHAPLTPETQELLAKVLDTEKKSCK

Compound: CC1=C2C(=CC=C1)N=C(N(C2=O)C3=CC=CC=C3C)CN4C=NC5=C(N=CN=C54)N
Experiment: log2 fold change, soluble protein after heating vs DMSO (PISA); higher = thermal stabilisation; K562 lysate, 10 uM; active = over 0.2 and 3.5 SD of the protein, either way, in both replicates (recomputed)
Method in brief: (§1)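 Values give the log-two fold change in thermal stability against solvent controls, from duplicates. Crude K562 extract at 1 mg/mL protein, made by dounce homogenisation in PBS pH 7.4 with 1 mM MgCl2, was treated with 10 μM compound for 30 min. After 3 min heating across 48°C-58°C, aliquots were pooled, adjusted to 0.5% NP-40 at 4°C and centrifuged at 21,000xg for 90 min. The supernatant was measured by TMTpro 16plex LC-MS/MS with channel sums equalised.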

Q: With YIPF5 isoform 3 (UniProt Q969M3) as the target, how does the log2 fold change read?
A: inactive: 0.002

Q: YLPM1 (UniProt P49750) was tested. Which log2 fold change did it give?
A: inactive: 0.034

Q: YEATS2 (UniProt Q9ULM3) was tested. Which log2 fold change did it give?
A: inactive: 0.045

Q: For YARS (UniProt P54577), which log2 fold change is on record?
A: inactive: -0.005

Q: ZEB2 (UniProt O60315) was tested. Which log2 fold change did it give?
A: inactive: 0.128

Q: For ZFYVE27 isoform 2 (UniProt Q5T4F4), which log2 fold change is on record?
A: inactive: 0.098

Q: How did the log2 fold change turn out when ZBED8 (UniProt Q8IZ13) was run?
A: inactive: -0.108

Q: Which log2 fold change does the source give for ZFYVE26 (UniProt Q68DK2) here?
A: inactive: 0.14

Q: Which log2 fold change does the source give for XRCC1 (UniProt F5H8D7) here?
A: inactive: 0.099

Q: Which log2 fold change does the source give for XPR1 (UniProt Q9UBH6) here?
A: inactive: -0.096

Compound: Cc1sc2c(c1C)C(c1ccc(Cl)cc1)=N[C@@H](CC(=O)OC(C)(C)C)c1nnc(C)n1-2
Experiment: as above
Method in brief: as §1

Q: With ZGPAT (UniProt Q8N5A5) as the target, how does the log2 fold change read?
A: inactive: 0.091

Q: YWHAH (UniProt Q04917) was tested. Which log2 fold change did it give?
A: inactive: 0.022

Q: Which log2 fold change does the source give for YIF1A (UniProt O95070) here?
A: inactive: -0.005

Q: How did the log2 fold change turn out when ZC3H7B (UniProt Q9UGR2) was run?
A: inactive: 0.011

Q: For YME1L1 (UniProt Q96TA2), which log2 fold change is on record?
A: inactive: -0.008

Q: Which log2 fold change does the source give for ZC3H13 (UniProt Q5T200) here?
A: inactive: -0.061

Q: For YWHAE (UniProt P62258), which log2 fold change is on record?
A: inactive: -0.023

Q: How did the log2 fold change turn out when ZC3H14 (UniProt Q6PJT7) was run?
A: inactive: -0.05

Q: For ZBTB3 (UniProt Q9H5J0), which log2 fold change is on record?
A: inactive: -0.072

Q: ZFPM2 (UniProt Q8WW38) was tested. Which log2 fold change did it give?
A: inactive: 0.062

Q: Which log2 fold change does the source give for ZFYVE9 (UniProt O95405) here?
A: inactive: -0.032

Q: With XPO7 (UniProt Q9UIA9) as the target, how does the log2 fold change read?
A: inactive: -0.016

Q: For XRCC3 (UniProt O43542), which log2 fold change is on record?
A: inactive: 0.013

Q: With ZER1 (UniProt Q7Z7L7) as the target, how does the log2 fold change read?
A: inactive: -0.085

Q: For ZFP91 (UniProt Q96JP5), which log2 fold change is on record?
A: inactive: -0.018

Q: For YBX3 isoform 2 (UniProt P16989), which log2 fold change is on record?
A: inactive: -0.151

Q: XRCC5 (UniProt P13010) was tested. Which log2 fold change did it give?
A: inactive: -0.002

Q: YY1 (UniProt P25490) was tested. Which log2 fold change did it give?
A: inactive: 0.016

Q: Which log2 fold change does the source give for YARS2 (UniProt Q9Y2Z4) here?
A: inactive: -0.016

Q: For ZCCHC9 (UniProt Q8N567), which log2 fold change is on record?
A: inactive: 0.01

Q: With YRDC (UniProt Q86U90) as the target, how does the log2 fold change read?
A: inactive: -0.029

Q: How did the log2 fold change turn out when ZC3H8 (UniProt Q8N5P1) was run?
A: inactive: -0.081

Q: With XPOT (UniProt O43592) as the target, how does the log2 fold change read?
A: inactive: 0.003

Q: How did the log2 fold change turn out when ZFPL1 (UniProt O95159) was run?
A: inactive: 0.136

Q: How did the log2 fold change turn out when YIPF5 isoform 3 (UniProt Q969M3) was run?
A: inactive: 0.001

Q: YLPM1 (UniProt P49750) was tested. Which log2 fold change did it give?
A: inactive: 0.005

Q: YARS (UniProt P54577) was tested. Which log2 fold change did it give?
A: inactive: 0.013

Q: ZEB2 (UniProt O60315) was tested. Which log2 fold change did it give?
A: inactive: 0.045

Q: ZFYVE27 isoform 2 (UniProt Q5T4F4) was tested. Which log2 fold change did it give?
A: inactive: -0.124

Q: Which log2 fold change does the source give for ZBED8 (UniProt Q8IZ13) here?
A: inactive: 0.01

Q: How did the log2 fold change turn out when XRCC1 (UniProt F5H8D7) was run?
A: inactive: -0.031

Q: How did the log2 fold change turn out when XPR1 (UniProt Q9UBH6) was run?
A: inactive: -0.004

Compound: c1ccc([C@@H]2C[C@H]2NC2CCNCC2)cc1
Experiment: as above
Method in brief: as §1

Q: How did the log2 fold change turn out when ZGPAT (UniProt Q8N5A5) was run?
A: inactive: 0.033

Q: With YWHAH (UniProt Q04917) as the target, how does the log2 fold change read?
A: inactive: 0.084

Q: How did the log2 fold change turn out when YIF1A (UniProt O95070) was run?
A: inactive: 0.209

Q: ZC3H7B (UniProt Q9UGR2) was tested. Which log2 fold change did it give?
A: inactive: 0.043

Q: YME1L1 (UniProt Q96TA2) was tested. Which log2 fold change did it give?
A: inactive: 0.002

Q: How did the log2 fold change turn out when ZC3H13 (UniProt Q5T200) was run?
A: inactive: 0.136

Q: How did the log2 fold change turn out when YWHAE (UniProt P62258) was run?
A: inactive: -0.014

Q: Which log2 fold change does the source give for ZC3H14 (UniProt Q6PJT7) here?
A: inactive: -0.057

Q: ZBTB3 (UniProt Q9H5J0) was tested. Which log2 fold change did it give?
A: inactive: -0.065

Q: Which log2 fold change does the source give for ZFPM2 (UniProt Q8WW38) here?
A: inactive: 0.055

Q: How did the log2 fold change turn out when ZFYVE9 (UniProt O95405) was run?
A: inactive: 0.008

Q: XPO7 (UniProt Q9UIA9) was tested. Which log2 fold change did it give?
A: inactive: -0.002

Q: With XRCC3 (UniProt O43542) as the target, how does the log2 fold change read?
A: inactive: -0.062

Q: Which log2 fold change does the source give for ZER1 (UniProt Q7Z7L7) here?
A: inactive: -0.091

Q: Which log2 fold change does the source give for ZFP91 (UniProt Q96JP5) here?
A: inactive: 0.033

Q: For YBX3 isoform 2 (UniProt P16989), which log2 fold change is on record?
A: inactive: -0.023

Q: How did the log2 fold change turn out when XRCC5 (UniProt P13010) was run?
A: inactive: 0.071

Q: How did the log2 fold change turn out when YY1 (UniProt P25490) was run?
A: inactive: 0.046

Q: YARS2 (UniProt Q9Y2Z4) was tested. Which log2 fold change did it give?
A: inactive: 0.016

Q: YRDC (UniProt Q86U90) was tested. Which log2 fold change did it give?
A: inactive: -0.053

Q: Which log2 fold change does the source give for ZC3H8 (UniProt Q8N5P1) here?
A: inactive: -0.033

Q: XPOT (UniProt O43592) was tested. Which log2 fold change did it give?
A: inactive: 0.021

Q: How did the log2 fold change turn out when ZFPL1 (UniProt O95159) was run?
A: inactive: -0.024

Q: With YIPF5 isoform 3 (UniProt Q969M3) as the target, how does the log2 fold change read?
A: inactive: -0.113

Q: Which log2 fold change does the source give for YLPM1 (UniProt P49750) here?
A: inactive: 0.05

Q: Which log2 fold change does the source give for YARS (UniProt P54577) here?
A: inactive: 0.052

Q: XPR1 (UniProt Q9UBH6) was tested. Which log2 fold change did it give?
A: inactive: 0.038
